Reference: US12492403B2, “Aptamers and the use thereof in the treatment of cancer” (FUNDACIÓN PARA LA INVESTIGACIÓN BIOMÉDICA DEL HOSPITAL …, priority 2018, dated 2025)
Some entries share one result that the patent states for a list of compounds.

System: MDA-MB-231 cell cultures
Experiment: MTT activity after transfection with in vivo-jetPEI
Assay type: cell-based, human
Details: 400 nM, 48 hours

“5′TGGGGTGGGCGGGCGGGGGTGGGGGTGGT-3′ (DNA, backbone and methylation of C not given here; further chemistry not fully specified) [apMNKQ2]” was tested, and the “inhibition of MTT activity” value was “greater than 90%”.
